# The list shows a part of the results. The main result of the screen is listed elsewhere. These columns were measured beside it and carry no call. Compounds called inactive in the main read-out are mostly missing here. Words in brackets tell the shape of the fitted curve; partial curves, single points and poor fits give uncertain potencies.
# Test: qHTS Assay to Find Inhibitors of Chronic Active B-Cell Receptor Signaling
# Conditions: ABC-DLBCL IkBa-CBG/CBR reporter, luminescence ratio (green luciferase fused to IkBa over red control in TMD8 lymphoma cells), 4 h
# Summary of the method: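 Doxycycline induced both beetle luciferases in TMD8 lymphoma cells; IKK-driven degradation limits the IkappaBalpha-fused green signal, while red luminescence normalises for cell number and nonspecific effects. Compounds tested up to 46 uM, 4 hrs.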
# [1] = measured here: CBR red luminescence, cell number
compound,measurement,setting,value
O=C(Nc1ccn(Cc2ccccc2)n1)c1cccc(Cn2cc([N+](=O)[O-])cn2)c1,AC50,[1],"9.2 µM [falling, partial curve, poor fit]"
COc1cc(/C=C2/S/C(=N/S(=O)(=O)c3ccccc3)NC2=O)c([N+](=O)[O-])cc1OC,AC50,[1],"20.6 µM [rising, partial curve]"
same,AC50,measured here: IkBa-CBG green luminescence,"18.4 µM [falling, partial curve, poor fit]"
O=C1NNC(c2ccccc2)=N/C1=C\c1ccc(Cl)cc1,AC50,[1],"31.6 µM [rising, single point]"
N#CC1=C(S)N(c2ccccc2)C(c2ccco2)NC1=O (configuration not stated),AC50,[1],"35.5 µM [falling, single point]"
COc1ccc(/C=C/C(=O)c2ccc(O)cc2)cc1,AC50,[1],"8.91 µM [falling, partial curve, poor fit]"
COc1ccccc1NC(=O)c1ccc(NC(=O)CSc2ncccn2)cc1,AC50,[1],"35.5 µM [rising, single point]"
Cc1cc(NC(=O)NC(=O)c2cccc(OC(F)(F)C(F)F)c2)n[nH]1,AC50,[1],"1.84 µM [falling, partial curve, poor fit]"
CCN1C(=O)/C(=C/c2ccc(C)o2)N(C)C1=S,AC50,[1],"14.6 µM [falling, single point]"
COc1ccc(NCc2ccc([N+](=O)[O-])s2)c(OC)c1,AC50,[1],"32.6 µM [rising, partial curve, poor fit]"
O=C(NCCc1ccc(F)cc1)c1cc(=O)c2ccccc2o1,AC50,[1],"20 µM [falling, partial curve, poor fit]"
Cc1cccc(NC(=O)CSc2nc3ccccc3o2)c1,AC50,[1],"0.58 µM [rising, partial curve, poor fit]"
Cc1ccc(C)c(OCCN2C(=O)NC3(CCc4ccccc4C3)C2=O)c1 (configuration not stated),AC50,[1],"29.1 µM [falling, single point]"
CS(=O)(=O)N(CC(=O)N1CCN(c2cccc(Cl)c2)CC1)C1CCCCC1,AC50,[1],"0.731 µM [falling, partial curve, poor fit]"
Nc1ccc(C(=O)NCCCSc2ccccc2)cc1[N+](=O)[O-],AC50,[1],"1.78 µM [falling, full curve, poor fit]"
CCOC(=O)N1CCC(NC(=O)c2cc(C(=O)NCc3cccc(Cl)c3)ccc2CO)CC1,AC50,[1],"18.4 µM [rising, single point]"
CCN1CCN(c2ncnc3scc(-c4ccc(OC)cc4)c23)CC1,AC50,[1],"35.5 µM [falling, single point]"
CC(=O)[C@@]12O[C@@H]1C[C@H]1[C@@H]3CC[C@H]4C[C@@H](O)CC[C@]4(C)[C@H]3CC[C@@]12C,AC50,[1],"11.2 µM [rising, partial curve, poor fit]"
COc1ccc(C(=O)N2CCSC2=S)cc1OC,AC50,[1],"18.4 µM [falling, single point]"
COCCn1c(SCC(=O)Nc2cc(C)on2)nnc1-c1c[nH]c2ccccc12,AC50,[1],"6.51 µM [rising, full curve, poor fit]"
COc1ccc(C=C2C(=O)c3ccccc3C2=O)cc1O,AC50,[1],"7.08 µM [falling, full curve, poor fit]"
COc1ccccc1C(=O)NNC(=O)C1CC=CCC1 (configuration not stated),AC50,[1],"7.94 µM [falling, partial curve]"
Cc1ccccc1/C=N/Nc1ncnc2nc[nH]c12,AC50,[1],"11.2 µM [falling, partial curve, poor fit]"
CC(C)(O)C(O)COc1c2ccoc2cc2oc(=O)ccc12 (configuration not stated),AC50,[1],"2.51 µM [rising, full curve, poor fit]"
Cn1cnnc1SCC(=O)Nc1ccc(Oc2ccccc2)cc1,AC50,[1],"8.91 µM [falling, partial curve, poor fit]"
COC(=O)COc1ccccc1/C=C1/NC(=O)NC1=O,AC50,[1],"4.11 µM [rising, full curve, poor fit]"
C/C(=N/NC(=O)c1ccc(Br)o1)c1cccc(NC(=O)c2ccc(F)cc2)c1,AC50,[1],"25.1 µM [falling, single point]"
CCN(c1ccccc1)S(=O)(=O)c1ccc(C(=O)N(C)Cc2cccs2)cc1,AC50,[1],"25.9 µM [falling, single point]"
Cc1ccc(N2C(S)=C(C#N)C(=O)NC23CCCCC3)cc1,AC50,[1],"25.9 µM [rising, partial curve, poor fit]"
COc1ccc(NC(=S)NCc2ccccn2)cc1OC,AC50,[1],"22.4 µM [falling, single point]"
COc1ccc(CSc2nnnn2Cc2ccccc2)cc1OC,AC50,[1],"16.4 µM [rising, single point]"
CCn1c(=O)n(CC(=O)NCc2ccco2)c(=O)c2ccccc21,AC50,[1],"14.1 µM [falling, single point]"
O=C(NCC(=O)N1CCOCC1)OCc1ccccc1,AC50,[1],"22.4 µM [rising, partial curve, poor fit]"
CCCCCC/C=N/Nc1nnc(Cc2ccc(OC)c(OC)c2)c(=O)[nH]1,AC50,[1],"0.0891 µM [rising, full curve, poor fit]"
COC(=O)c1ccccc1NC(=O)CN1CCN(Cc2ccccc2)CC1,AC50,[1],"0.112 µM [rising, full curve, poor fit]"
CC1C/C(=N/NC(=O)c2cccc(F)c2)c2ccc(O)cc2C1 (configuration not stated),AC50,[1],"16.4 µM [falling, single point]"
OC1(Cc2cc(-c3ccccc3)no2)CCN(CCCc2ccccc2)CC1,AC50,[1],"12.6 µM [falling, partial curve, poor fit]"
CCCc1cc(=O)oc2cc(C)cc(OC(C)C(=O)NCC(O)c3ccccc3)c12 (configuration not stated),AC50,[1],"12.6 µM [falling, partial curve]"
COc1ccc(S(=O)(=O)N2CCCC2)c(C)c1C,AC50,[1],"2.82 µM [rising, full curve]"
CC(=O)NC(Cc1ccccc1)C(=O)OCC(=O)c1ccccc1 (configuration not stated),AC50,[1],"11.6 µM [rising, partial curve, poor fit]"
O=CNCc1nc2ccccc2n1CCc1ccccc1,AC50,[1],"28.2 µM [falling, partial curve, poor fit]"
O=C(/C=C/c1ccc(Cl)cc1)NCc1ccco1,AC50,[1],"20.6 µM [falling, single point]"
Nc1nc(Cl)cc(Oc2ccc(Cl)cc2)n1,AC50,[1],"22.4 µM [rising, partial curve, poor fit]"
CCCCc1cc(=O)oc2cc(OCC(=O)NCc3ccccn3)c(Cl)cc12,AC50,[1],"35.5 µM [rising, partial curve, poor fit]"
COc1ccc(C)cc1-n1nnnc1SCC(=O)N1CCC(C(=O)Nc2nccs2)CC1,AC50,[1],"35.5 µM [falling, single point]"
Cc1cc2c(c(N)n1)c(=O)oc1ccccc12,AC50,[1],"2.82 µM [falling, full curve]"
CCn1c(SCC(=O)N2CCc3ccccc32)nnc1-c1c[nH]c2ccccc12,AC50,[1],"0.146 µM [falling, full curve, poor fit]"
Nc1nonc1-c1noc(CCCN2C(=O)c3ccccc3C2=O)n1,AC50,[1],"12.6 µM [rising, partial curve]"
C=CCc1cc(/C=C/c2nc(O)c([N+](=O)[O-])c(=O)[nH]2)cc(OC)c1O,AC50,[1],"5.62 µM [falling, full curve]"
O=C(/C=C/c1ccco1)Nc1cccnc1Cl,AC50,[1],"31.6 µM [falling, single point]"
O=C(O)C1=C[C@@H](c2ccc3c(c2)OCO3)C[C@@H](OCCCCO)O1,AC50,[1],"4.47 µM [rising, single point]"
COc1cccc(C(=O)/C=C/Nc2ccc(NC(C)=O)cc2)c1,AC50,[1],"6.51 µM [rising, single point]"
CN(c1ccc(OCC(=O)N2CCC(C(N)=O)CC2)cc1)S(=O)(=O)c1cccs1,AC50,[1],"0.0082 µM [falling, full curve, poor fit]"
O=C(CCN1C(=O)c2ccccc2C1=O)Nc1cccc(S(=O)(=O)N2CCCCC2)c1,AC50,[1],"5.8 µM [rising, partial curve]"
COCC(=O)NCCNc1nc2ccc(C)cc2cc1C,AC50,[1],"22.4 µM [rising, single point]"
O=C(c1nc2ccccn2c1CNCC1OCCc2ccccc21)N1CCOCC1 (configuration not stated),AC50,[1],"35.5 µM [rising, single point]"
Cc1cccc(C(=O)NNC(=S)NC(=O)c2cccs2)c1,AC50,[1],"10 µM [falling, partial curve]"
Cn1cccc1CC(=O)NNC(=S)Nc1ccccc1Cl,AC50,[1],"6.51 µM [rising, single point]"
CCOC(=O)COc1nc(C)c(Br)c(OC)n1,AC50,[1],"8.91 µM [rising, partial curve, poor fit]"
Cc1cc(C)c(S(=O)(=O)NCCc2csc3nc(-c4ccc(Cl)cc4)nn23)c(C)c1,AC50,[1],"35.5 µM [falling, single point]"
O=C1c2ccccc2NC(c2ccccn2)N1NS(=O)(=O)c1ccccc1 (configuration not stated),AC50,[1],"0.316 µM [rising, full curve]"
COc1ccccc1NC(=S)N(Cc1ccc(C)cc1)Cc1ccccn1,AC50,[1],"14.1 µM [falling, single point]"
COCCn1c(SCC(=O)c2c(-c3ccccc3)n(C)c3ccccc23)nnc1-c1ccncc1,AC50,[1],"16.4 µM [falling, partial curve]"
CCCCC(C(=O)NC(C)(C)C)N(Cc1ccccc1Cl)C(=O)c1snc(C(N)=O)c1N (configuration not stated),AC50,[1],"11.2 µM [rising, partial curve]"
Cc1ccc(CONC(=O)c2ccccc2)cc1,AC50,[1],"8.91 µM [falling, partial curve, poor fit]"
CSc1c(-c2ccccn2)c(N)nn1C(=O)C1CCC1,AC50,[1],"15.8 µM [rising, single point]"
CCOC(=O)c1sc(NC(=O)CSc2nc3cccnc3n2C)nc1C,AC50,[1],"0.794 µM [falling, full curve, poor fit]"

# Some of the entries above in a different format:
compound	measurement	setting	value
Cc1ccccc1/C=N/Nc1ncnc2nc[nH]c12	AC50	[1]	11.2 µM [falling, partial curve, poor fit]
O=C(/C=C/c1ccc(Cl)cc1)NCc1ccco1	AC50	[1]	20.6 µM [falling, single point]

# Some of the entries above in another layout.
compound	measurement	setting	value
COc1ccc(NCc2ccc([N+](=O)[O-])s2)c(OC)c1	AC50	[1]	32.6 µM [rising, partial curve, poor fit]
O=C(NCCc1ccc(F)cc1)c1cc(=O)c2ccccc2o1	AC50	[1]	20 µM [falling, partial curve, poor fit]

# From PubChem BioAssay AID493014 (National Center for Advancing Translational Sciences (NCATS), 2011)
